Measurements published in patent US6156724A (priority 1998, dated 2000).

Experiments:
[1] = system: Balb/c splenocytes (resting lymphocytes); assay: Lymphocyte viability (LcV) assay; type: cell-based, murine; settings: therapeutic index
Method: Forty two (42) didemnin compounds (see Table 1) were evaluated for cytotoxicity to one of the lymphocyte populations in the MLR (i.e., Balb/c splenocytes). The purpose of the lymphocyte viability assay (LcV) is to measure metabolic activity in lymphocytes after they have been exposed to the compounds for the duration of an under conditions equivalent to the MLR. The inverse of the data yields cytotoxicity information about the compounds on murine lymphocytes. The rationale of using resting cells, in this case unstimulated lymphocytes, to measure cytotoxicity has a strategic importance. In the MLR the heterogenous cell populations are predominantly resting cells when the assay begins.
Test compounds were prepared in two sets as described above. Splenocytes were prepared as described previously from one murine strain (Balb/c), and a volume of 200 μL of the cell suspension was added to one set of test compounds and control wells.
Assay plates were incubated as in the MLR and then pulsed overnight 75 μL per well MTT-thiazolyl blue solution (150 μg). The plates were decanted and the resulting insoluble formazan crystals were dissolved in 200 μL of isopropyl alcohol. Absorbance at 570 nm was measured.
The LcV data were calculated as a percentage of basal metabolic activity, or percent viability, relative to BALB/c control, and an LC50 value was interpolated for each test compound.

[2] = system: concanavalin A-induced lymphoblasts (Con A splenocytes); assay: Lymphoblast viability (LbV) assay; settings: therapeutic index

Molecule	ratio LcV (LC50)/MLR (IC50) [1]	ratio LbV (LC50)/MLR (IC50) [2]
CC[C@H](C)[C@H]1NC(=O)[C@@H](NC(=O)[C@@H](CC(C)C)N(C)C(=O)[C@@H]2CCCN2C(=O)C(C)O)[C@@H](C)OC(=O)[C@H](Cc2ccc(OC)cc2)N(C)C(=O)[C@@H]2CCCN2C(=O)[C@H](CC(C)C)NC(=O)[C@@H](C)C(=O)[C@H](C(C)C)OC(=O)C[C@@H]1O (some centres unmarked) [Compound 1, didemnin B]	15,000	1
CC[C@H](C)[C@H]1NC(=O)[C@@H](NC(=O)[C@@H](CC(C)C)NC)[C@@H](C)OC(=O)[C@H](Cc2ccc(OC)cc2)N(C)C(=O)[C@@H]2CCCN2C(=O)[C@H](CC(C)C)NC(=O)[C@@H](C)C(=O)[C@H](C(C)C)OC(=O)C[C@@H]1O [Compound 2, Didemnin A] (H-[dNMeL]T[X1]LP[NMeY](Me); ester 2-C)	11,000	15
CC[C@H](C)[C@H]1NC(=O)[C@@H](NC(=O)[C@@H](CC(C)C)N(C)C(=O)OCc2ccccc2)[C@@H](C)OC(=O)[C@H](Cc2ccc(OC)cc2)N(C)C(=O)[C@@H]2CCCN2C(=O)[C@H](CC(C)C)NC(=O)[C@@H](C)C(=O)[C@H](C(C)C)OC(=O)C[C@@H]1O [Compound 3, Z-Didemnin A] (Cbz-[dNMeL]T[X1]LP[NMeY](Me); ester 2-C)	7400	2
CC[C@H](C)[C@H]1NC(=O)[C@@H](NC(=O)[C@@H](CC(C)C)N(C)C(=O)OCc2ccccc2)[C@@H](C)OC(=O)[C@H](Cc2ccc(OC)cc2)N(C)C(=O)[C@@H]2CCCN2C(=O)[C@H](CC(C)C)NC(=O)[C@@H](C)C(=O)[C@H](C(C)C)OC(=O)C[C@H]1O [Compound 4, Z-[(3R,4R,5S)Ist^2]Didemnin A] (Cbz-[dNMeL]T[X6]LP[NMeY](Me); ester 2-C)	500	12
CC[C@@H](C)[C@H]1NC(=O)[C@@H](NC(=O)[C@@H](CC(C)C)N(C)C(=O)OCc2ccccc2)[C@@H](C)OC(=O)[C@H](Cc2ccc(OC)cc2)N(C)C(=O)[C@@H]2CCCN2C(=O)[C@H](CC(C)C)NC(=O)[C@@H](C)C(=O)[C@H](C(C)C)OC(=O)C[C@@H]1O [Compound 5, Z-[(3S,4R,5R)-Ist^2]Didemnin A] (Cbz-[dNMeL]T[X5]LP[NMeY](Me); ester 2-C)	33,000	43
CC[C@H](C)[C@@H]1NC(=O)[C@@H](NC(=O)[C@@H](CC(C)C)N(C)C(=O)OCc2ccccc2)[C@@H](C)OC(=O)[C@H](Cc2ccc(OC)cc2)N(C)C(=O)[C@@H]2CCCN2C(=O)[C@H](CC(C)C)NC(=O)[C@@H](C)C(=O)[C@H](C(C)C)OC(=O)C[C@@H]1O [Compound 6, Z-[(3S,4S,5S)-Ist^2]Didemnin A] (Cbz-[dNMeL]T[X3]LP[NMeY](Me); ester 2-C)	34	9
CC[C@H](C)[C@H]1NC(=O)[C@@H](NC(=O)[C@@H](CC(C)C)NC)[C@@H](C)OC(=O)[C@H](Cc2ccc(OC)cc2)N(C)C(=O)[C@@H]2CCCN2C(=O)[C@H](CC(C)C)NC(=O)[C@@H](C)C(=O)[C@H](C(C)C)OC(=O)C[C@@H]1OC(C)=O [Compound 7, O-Acetyldidemnin A]	100	1
CC[C@H](C)[C@H]1NC(=O)[C@@H](NC(=O)[C@@H](CC(C)C)NC)[C@@H](C)OC(=O)[C@H](Cc2ccc(OC)cc2)N(C)C(=O)[C@@H]2CCCN2C(=O)[C@H](CC(C)C)NC(=O)[C@@H](C)[C@@H](O)[C@H](C(C)C)OC(=O)C[C@@H]1O [Compound 10, [(2S,3R,4S)-H2 Hip^3]Didemnin A] (H-[dNMeL]T[X4]LP[NMeY](Me); ester 2-C)	350	16
CC[C@H](C)[C@H]1NC(=O)[C@@H](NC(=O)[C@@H](CC(C)C)N(C)C(=O)[C@@H]2CCCN2C(=O)[C@H](C)O)[C@@H](C)OC(=O)[C@H](Cc2ccc(OC)cc2)N(C)C(=O)[C@@H]2CCCN2C(=O)[C@H](CC(C)C)NC(=O)[C@@H](C)C(=NO)[C@H](C(C)C)OC(=O)C[C@@H]1O [Compound 11, [Hip^3 oxime]Didemnin B]	10,000	2
CC[C@H](C)[C@H]1NC(=O)[C@@H](NC(=O)[C@@H](CC(C)C)NC)[C@@H](C)OC(=O)[C@H](Cc2ccc(OC)cc2)N(C)C(=O)[C@@H]2CCCN2C(=O)[C@H](CC(C)C)NC(=O)[C@@H](C)C(=O)[C@@H](C(C)C)OC(=O)C[C@@H]1O [Compound 12, Epididemnin A1] (H-[dNMeL]T[X2]LP[NMeY](Me); ester 2-C)	120	1
CC[C@H](C)[C@H]1NC(=O)[C@@H](NC(=O)[C@@H](CC(C)C)N(C)C(=O)[C@@H]2CCCN2C(=O)[C@H](C)O)[C@@H](C)OC(=O)[C@H](Cc2ccc(O)cc2)NC(=O)[C@@H]2CCCN2C(=O)[C@H](CC(C)C)NC(=O)[C@@H](C)C(=O)[C@H](C(C)C)OC(=O)C[C@@H]1O [Compound 13, Didemnin N]	> 270	1
CC[C@H](C)[C@H]1NC(=O)[C@@H](NC(=O)[C@@H](CC(C)C)N(C)C(=O)[C@@H]2CCCN2C(=O)[C@H](C)O)[C@@H](C)OC(=O)[C@H](Cc2ccc(OC)c(I)c2)N(C)C(=O)[C@@H]2CCCN2C(=O)[C@H](CC(C)C)NC(=O)[C@@H](C)C(=O)[C@H](C(C)C)OC(=O)C[C@@H]1O [Compound 14, Iododidemnin B]	> 12,000	1
CC[C@H](C)[C@H]1NC(=O)[C@@H](NC(=O)[C@@H](CC(C)C)N(C)C(=O)[C@@H]2CCCN2C(=O)[C@H](C)O)[C@@H](C)OC(=O)[C@H](CC2CCC(OC)CC2)N(C)C(=O)[C@@H]2CCCN2C(=O)[C@H](CC(C)C)NC(=O)[C@@H](C)C(=O)[C@H](C(C)C)OC(=O)C[C@@H]1O (some centres unmarked) [Compound 15, [H6 Me2 Tyr6]Didemnin B]	100	2
CC[C@H](C)[C@H]1NC(=O)[C@@H](NC(=O)[C@@H](CC(C)C)N(C)C(=O)[C@@H]2CCCN2C(=O)[C@H](C)O)[C@@H](C)OC(=O)[C@H](CC2CCCCC2)N(C)C(=O)[C@@H]2CCCN2C(=O)[C@H](CC(C)C)NC(=O)[C@@H](C)C(=O)[C@H](C(C)C)OC(=O)C[C@@H]1O [Compound 16, [H6 -N-MePhe^6]Didemnin B]	> 18,000	1
CC[C@H](C)[C@@H](NC(=O)[C@@H](NC(=O)[C@@H](CC(C)C)NC)[C@@H](C)O)[C@@H](O)CC(=O)O[C@H](C(=O)[C@H](C)C(=O)N[C@@H](CC(C)C)C(=O)N1CCC[C@H]1C(=O)N(C)[C@@H](Cc1ccc(OC)cc1)C(=O)O)C(C)C [Compound 17, Acyclodidemnin A] (H-[dNMeL]T[X1]LP[NMeY](Me)-OH)	> 18,000	436
[Anhydro1st^2 ][Phth-Ala^9 ]DB [Compound 9]	33,000	–
[Phth-Ala^9 ]DB [Compound 8]	21,000	–

Numbered stars: 1 amine (or outer) side, 2 acyl side, 3 side chain; on linkers, the order of the positions; unused ones are H or OH. Bridge positions count the residues as written; N and C are the ends. Square brackets hold non-standard residues; d marks the D form. Peptide text beside a SMILES is read from it. * marks the point of attachment. X4 = CC[C@H](C)[C@@H](N[*:1])[C@@H](O)CC(=O)O[C@@H](C(C)C)[C@H](O)[C@H](C)C(=O)[*:2]; X2 = CC[C@H](C)[C@@H](N[*:1])[C@@H](O)CC(=O)O[C@@H](C(=O)[C@H](C)C(=O)[*:2])C(C)C; X5 = CC[C@@H](C)[C@@H](N[*:1])[C@@H](O)CC(=O)O[C@H](C(=O)[C@H](C)C(=O)[*:2])C(C)C; X1 = CC[C@H](C)[C@@H](N[*:1])[C@@H](O)CC(=O)O[C@H](C(=O)[C@H](C)C(=O)[*:2])C(C)C; X3 = CC[C@H](C)[C@H](N[*:1])[C@@H](O)CC(=O)O[C@H](C(=O)[C@H](C)C(=O)[*:2])C(C)C; X6 = CC[C@H](C)[C@@H](N[*:1])[C@H](O)CC(=O)O[C@H](C(=O)[C@H](C)C(=O)[*:2])C(C)C; NMeY = CN[C@@H](Cc1ccc(O)cc1)C(=O)O; dNMeL = CN[C@H](CC(C)C)C(=O)O; Cbz = O=C(OCc1ccccc1)*
